Hit rate of the full screen: of about 580,000 compounds, about 6,100 (1.1%) were called active. Entries that show only a call come without a potency. Inconclusive results, whose numbers are uncertain, are shown with a selection of clear calls. Calls follow the shape of the dose curve; as a rule, active = well fitted inhibition curve with a large enough effect; inconclusive = small, poorly fitted or top-dose-only effect, or another doubt; inactive = no such curve, though single readings can be large or run the other way. Potencies of inconclusive entries are doubtful fits and often do not repeat.
Target: Polyunsaturated fatty acid lipoxygenase ALOX12 (Homo sapiens) (UniProt P18054)
Experiment: Primary qHTS assay for inhibitors of human arachidonate 12S-lipoxygenase (ALOX12): Round 2
Settings: purified 12hLO, xylenol orange hydroperoxide absorbance; activity change, negative = inhibition: at 108 µM (top of the series) unless noted
Outline: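 Hydroperoxide product was detected by ferrous iron/xylenol orange as the 573 to 405 nm absorbance ratio. Arachidonic acid at 40 uM (final) was turned over for 30 min at room temperature by 150 nM human 12hLO, pH 7.0 Hepes buffer, after 15 min compound preincubation.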
Potency is read from the fitted curve at half-maximal effect.

Amino acid sequences for entries named in this document (tags omitted). A change or cut given only in a name is not applied to a line headed by its entry.
UniProt P18054: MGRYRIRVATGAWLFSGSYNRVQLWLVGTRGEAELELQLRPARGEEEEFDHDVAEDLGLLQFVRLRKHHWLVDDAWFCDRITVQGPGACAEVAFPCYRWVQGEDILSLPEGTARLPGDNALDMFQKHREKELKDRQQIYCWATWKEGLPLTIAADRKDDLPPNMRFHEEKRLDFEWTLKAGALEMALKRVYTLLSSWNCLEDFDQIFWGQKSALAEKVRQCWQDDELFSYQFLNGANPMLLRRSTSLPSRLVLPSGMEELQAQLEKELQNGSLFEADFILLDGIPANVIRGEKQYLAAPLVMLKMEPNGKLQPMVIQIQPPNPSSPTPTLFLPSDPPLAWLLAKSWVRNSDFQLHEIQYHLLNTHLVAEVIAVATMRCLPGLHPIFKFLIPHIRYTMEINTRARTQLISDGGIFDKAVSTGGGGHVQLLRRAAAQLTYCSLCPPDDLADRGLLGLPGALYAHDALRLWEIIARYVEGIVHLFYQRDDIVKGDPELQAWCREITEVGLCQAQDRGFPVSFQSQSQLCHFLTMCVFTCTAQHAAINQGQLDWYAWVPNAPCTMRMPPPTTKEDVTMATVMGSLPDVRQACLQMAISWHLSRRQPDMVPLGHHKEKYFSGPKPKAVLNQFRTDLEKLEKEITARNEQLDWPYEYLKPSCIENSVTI

Row | Structure (SMILES) | Potency | activity change, negative = inhibition
1 | CNC(=O)[C@@H]1CN(S(=O)(=O)c2ccc3c(c2)CCC3)C[C@H]1c1n[nH]c(C)n1 | inactive | 
2 | NS(=O)(=O)c1ccccc1 | inactive | 
3 | COc1ccccc1CNC(=O)c1ccccc1SCC(=O)NCc1ccco1 | inconclusive: 50.1 µM [inhibitor, partial curve, poor fit] | 
4 | CCCCOC(=O)c1ccc(Nc2ncnc3c2cnn3-c2cccc(C)c2)cc1 | inactive | 
5 | COc1ccccc1Oc1ccc2c(c1)C(=O)N(c1cccc(O)c1)C2=O | inactive | 
6 | N#Cc1c(NC(=O)CSc2nc(-c3ccccc3)cc(C(F)(F)F)n2)sc2c1CCC2 | inactive | 
7 | COc1ccc(-c2nc(S(=O)(=O)c3ccc(C)cc3)c(N3CCCCC3)o2)cc1 | inconclusive: 89.1 µM [inhibitor, partial curve, poor fit] | 
8 | CCOC(=O)c1[nH]c2ccc(F)cc2c1NC(=O)CCN1CCOCC1 | inactive | 
9 | CCC(C)NC(=S)NCCc1ccccc1 (configuration not stated) | inconclusive: 28.2 µM [inhibitor, partial curve, poor fit] | 
10 | C=CCn1c(COC)nnc1SCC(=O)c1ccc(F)cc1 | inconclusive: 39.8 µM [inhibitor, partial curve, poor fit] | 
11 | Cc1cccc(CN2CCC(CNc3ncnc4onc(-c5ccc(Cl)cc5)c34)CC2)c1 | inactive | 
12 | CCc1ccc(NC(=O)c2cc(-c3ccc[nH]3)n[nH]2)cc1 | active: 28.2 µM | 
13 | O=C(NCCO)Nc1ccc2nsnc2c1 | inactive | 
14 | CCCNC(=O)C1(C)CCCN(Cc2csc3ccccc23)C1 (configuration not stated) | inconclusive: 126 µM [inhibitor, single point] | 
15 | CCOc1ccc(S(=O)(=O)NCCc2cn3ccccc3n2)cc1 | inactive | 
16 | CC(C)C[C@H]1CNC(=S)N1CC1CCCN1C[C@H](CC(C)C)N1C[C@H](Cc2ccc(O)cc2)N(CC2CCCCCC2)C1=S (some centres not stated) | inconclusive: 28.2 µM [inhibitor, partial curve, poor fit] | 
17 | Cc1cc(C(C)(C)C)oc1C(=O)N(CC(=O)NC1CCCC1)c1ccc(F)cc1 | inactive | 
18 | CC(C)NC(=O)NC(=O)C(C)Sc1nc(-c2ccco2)nc2ccccc12 (configuration not stated) |  | inconclusive: -30.3% [inhibitor]
19 | CCN(c1ccccc1)S(=O)(=O)c1ccc(Cl)c(NC(=O)COC(=O)c2ccc(O)cc2)c1 | inactive | 
20 | CCOc1ccc2oc(C(=O)N3CCN(CC(=O)Nc4ccc(C)cc4)CC3)c(C)c2c1 | inactive | 
21 | O=C(NCCn1ccnc1-c1cc2n(n1)CCNC2)c1ccncc1 | inconclusive: 6.31 µM [inhibitor, full curve, poor fit] | 
22 | O=C(c1ccc(OCc2cn3ccccc3n2)cc1)N1CCN(c2ccc(O)cc2)CC1 | inconclusive: 0.224 µM [inhibitor, full curve, poor fit] | 

Two entries from above in a different format.
Row	Structure (SMILES)	Potency	activity change, negative = inhibition
3	COc1ccccc1CNC(=O)c1ccccc1SCC(=O)NCc1ccco1	inconclusive: 50.1 µM [inhibitor, partial curve, poor fit]	
4	CCCCOC(=O)c1ccc(Nc2ncnc3c2cnn3-c2cccc(C)c2)cc1	inactive	

— PubChem BioAssay AID1671190 (National Center for Advancing Translational Sciences (NCATS), 2021)
